From article PMC10163288 come the findings set out here.

Usually apparent Kd stands for a dissociation constant that holds for the conditions of the assay.

B1: il2ra_site1_1z92_normal_mot_b1fbee8209167eaadba3689d49187f1a_0001_1_af2_000000019_0001_16_31_H_._HHH_b2_06162_0001_0000500028_0000001_0_af2pred_0001_af2pred_1 (protein)
chain: SSSSDLEEEAEEIVREVVEKLGLDEQDKELLERDAEFSLRNGVSEKSVKLALELAAKAMHSSSSS
B2: il2ra_site2_2erj_sap_18_mot_HHH_b1_05537_000000062_0001_1_19_H_._HHH_b2_03360_0001_0000300015_0000001_0_0001 (protein)
chain: SSSSDEEEEEIRRLIEEARELLENGNPEEAYNVLARAALLALELGDEELFREISELFEKVYSSSS
B3: il2ra_site1_1z92_sap_18_mot_HHH_b1_01765_000000215_0001_19_35_H_._HHH_b1_01738_0001_0000300026_0000001_0_0001 (protein)
chain: SSSSDEQVERSLKRAVEIAVRMAGLSEEQKEELEKLAEELAERGVDFLEALRIVDELAVKLSSSS
B4: il2ra_site1_3nfp_sap_14_mot_HHH_b2_01814_000000033_0001_1_16_H_._HHH_b1_02934_af2_0001_0000300016_0000001_0_0001 (protein)
chain: SSSSSEEEEEVERLLEEAEEAIEEGDLEKALRLLQEAFRIAREAKDPELADLVYEVMRRIISSSS
B5: il2ra_site2_3nfp_normal_mot_HHH_b1_00660_af2_000000090_0001_40_57_H_._HHH_b2_00740_0001_0000100002_0000001_0_af2pred_0001_af2pred_1 (protein)
chain: SSSSDEELEREVERLLEEARHVDEEEAKKLLAEAAQLAYENNNFELFALVHEVLEELERRSSSSS
B6: il2ra_site1_3nfp_sap_26_mot_HHH_b1_06663_af2_000000234_0001_1_16_H_._HHH_b1_08000_af2_0001_0000100002_0000001_0_0001 (protein)
chain: SSSSSEIEEEVRELLEEIRRLLEEGDWEEALRLAEEVMRVAARGNDREAEKLIMEWNKRDSSSSS
B7: il2ra_site1_1z92_normal_mot_HHH_b2_05027_000000150_0001_42_56_H_._HHH_b2_03014_0001_0000400026_0000001_0 (protein)
chain: SSSSSSSEEWLEELVELVIKRSDDPEEQEELRRLLEELREEGDPELWLELAQLLIEIASSSSSSS
B8: il2ra_site1_2b5i_normal_mot_HHH_b1_02271_000000068_0001_1_16_H_._HHH_b1_00609_af2_0001_0000500024_0000001_0_af2pred_dldesign_0_af2pred (protein)
chain: SSSSAAKRARVEALKEEAKKLKDKREQLKALNEAYKLAGELGDEELEEELERLAREISLSSSSSS
B9: il2ra_site2_3nfp_sap_22_mot_HHH_b1_04960_000000149_0001_23_39_H_._HHH_b1_02593_af2_0001_0000200007_0000001_0_0001 (protein)
chain: SSSSNIEEAAEHLLKELRELGDEESVEELEHLLERLREEGDPKLEFELFALIAEIQNELLSSSSS
B10: il2ra_site1_2b5i_sap_7_mot_HHH_b1_06258_af2_000000112_0001_42_56_H_._HHH_b1_01955_af2_0001_0000100008_0000001_0_0001_af2pred_dldesign_0_af2pred (protein)
chain: SREELLAFIEKYAPPAAQKQARRLLDFGLSQGLPFEDILRALADYLARLTKDPSIREKCDAFLAK
B11: il2ra_site2_3nfp_normal_mot_HHH_b1_00660_af2_000000090_0001_40_57_H_._HHH_b1_05706_0001_0000200024_0000001_0 (protein)
chain: SSSSDEEKRELLEELRKIVENNDEEEFRRVVAEIAHLAYELNDFELFAALQELRELFARLSSSSS
B12: il2ra_site2_2erj_normal_mot_HHH_b2_01204_af2_000000056_0001_19_34_H_._HHH_b2_05536_af2_0001_0000300014_0000001_0 (protein)
chain: SSSSSEELEELYELAVKLLHLADEGDEEEFEKLAEELERLAEELQSDTVKEVVEYLQKLISSSSS
B13: il2ra_site1_3nfp_normal_mot_5dc7e7b25dc54f054fa2249576f850d6_0001_af2_000000143_0001_1_31_H_._fa9f4d8de626c23e570ee6a1132b7884_0001_af2_0001_0000300016_0000001_ … (protein)
chain: DIRELLEELIELNPERALRALERAVKAKGDPELRELLEEVRELLEEGNPEEAKELLKEAIKLAQP
B14: il2ra_site1_1z92_normal_mot_HHH_b2_00827_000000099_0001_20_37_H_._HHH_eva_0327_af2_0001_0000100007_0000001_0 (protein)
chain: SSEEELEELVEKIREVAEEKGDERLRRALERARFVLRELELGANSERAREIAEEAIKALYKTVVS
B15: il2ra_site1_2b5i_normal_mot_2cbe48e66a1f39b3fed734b245ab0a04_0001_000000015_0001_17_31_H_._HHH_b2_04843_0002_0000200006_0000001_0_af2pred_dldesign_0_af2pred (protein)
chain: SSSSSDPEAEFERLLAELRRAHAAGDDAAVDRLAFEAAFLAYRLKDEERLAEIEALYNALSSSSS
B16: il2ra_site1_2b5i_normal_mot_HHH_b1_05603_000000220_0001_1_17_H_._HHH_b2_02533_0001_0000100006_0000001_0_af2pred_dldesign_0_af2pred (protein)
chain: SSSSSSSRREVLLLANELYQKLEDEEKQDELYDLYTEFLKTRDPALAERIRAAAKELESSSSSSS
B17: il2ra_site2_3nfp_normal_mot_HHH_b1_02297_000000279_0001_41_58_H_._HHH_b2_07606_0001_0000500068_0000001_0_af2pred_0001_af2pred (protein)
chain: SSSSSSDDEELKEELKELLEEGDEEKLKKVVEEAAELAARLGDFELFALALQALKVLQSSSSSSS
B18: il2ra_site1_1z92_sap_20_mot_HHH_b1_07660_af2_000000114_0001_40_57_H_._HHH_b1_06241_0001_0000100001_0000001_0_0001 (protein)
chain: SEEEELEELLRELGVPPEDIEAIKRDFRRTKEFGFPPRDVLQAILNALERFGDPAAEVIEELLKK
B19: il2ra_site1_3nfp_normal_mot_HHH_b2_03322_af2_000000115_0001_43_57_H_._HHH_b1_01335_af2_0001_0000700010_0000001_0_af2pred_dldesign_0_af2pred (protein)
chain: SSSSSSSKAEEYLKKLEELKKEKNFKEFDKLYKEALRYAQENDDAELRAAVSALLREAASSSSSS
B20: il2ra_site1_2b5i_normal_mot_HHH_b1_08745_af2_000000166_0001_39_57_H_._HHH_b1_05027_0001_0000300017_0000001_0_af2pred_0001_af2pred (protein)
chain: SSSSSSEEVRELFEEANRLAREGDEEKAREVLEEAEELAERAGNPSLLRMVRAALRILESSSSSS
B21: il2ra_site1_3nfp_normal_mot_7f2fc9564206058543fe500fefea0e08_0001_000000219_0001_1_13_H_._HHH_b1_07406_af2_0001_0000400026_0000001_0_af2pred_0001_af2pred (protein)
chain: SSSSDKLKKALELAKRIQELLREGDPEEARELLEQLKELAEELNDEAAEILVKRLEKKINSSSSS
B22: il2ra_site1_3nfp_sap_18_mot_1dfc56a8f07a39e834a69883c800ee5d_0001_1_af2_000000099_0001_1_15_H_._HEEHE_0460_0001_0000400002_0000001_0_0001_af2pred_0001_af2pred_1 … (protein)
chain: SSSSSSEESEELLEKLEEALERGDVELALELARRIERLARKNDDQELLEAFWELIRRATSSSSSS
B23: il2ra_site2_2erj_normal_mot_HHH_b1_02713_af2_000000038_0001_1_19_H_._HHH_b2_05421_0001_0000500020_0000001_1 (protein)
chain: SSSSSLEEELIRHALLRAELLIEEGNEREARQVLESAEEYARLVGDEEVLERIQKLLEELSSSSS
B24: il2ra_site1_2b5i_normal_mot_HHH_b1_03148_af2_000000174_0001_43_57_H_._HHH_b2_06886_af2_0001_0000600032_0000001_0_1_af2pred_dldesign_0_af2pred (protein)
chain: SSSSSEKVEELDRLGSEAFRLSIKGKKEEFEKVAAEAIALAKELGSDKWVAELNYLKSKLSSSSS

The other results are listed elsewhere or left out. Where only a bound is given, the exact number is not on record here.

This experiment deals with il2ra, P01589. Briefly: yeast display titration.
With B1, the “apparent Kd” value was “inactive: no binding seen”.

Regarding B2, the “apparent Kd” value was “inactive: no binding seen”.

On to B3, for which the “apparent Kd” value was “inactive: no binding seen”.

Consider B4, for which the “apparent Kd” value is “inactive: no binding seen”.

For B5, the “apparent Kd” value is “inactive: no binding seen”.

For the molecule B6, the “apparent Kd” value is “inactive: no binding seen”.

With B7, the “apparent Kd” value is “inactive: no binding seen”.

Turning to B8, the “apparent Kd” value was “inactive: no binding seen”.

As to B9, the “apparent Kd” value is “inactive: no binding seen”.

B10: the apparent Kd is inactive: > 3.29 µM.

Take B11: the “apparent Kd” value was “inactive: no binding seen”.

As for B12, the “apparent Kd” value was “inactive: no binding seen”.

Regarding B13, the “apparent Kd” value was “inactive: no binding seen”.

With B14, the “apparent Kd” value is “inactive: no binding seen”.

Regarding B15, the “apparent Kd” value is “inactive: no binding seen”.

In the case of B16, the apparent Kd is inactive: > 0.238 µM.

B17: the “apparent Kd” value was “inactive: no binding seen”.

With B18, the “apparent Kd” value is “inactive: no binding seen”.

Take B19: the “apparent Kd” value was “inactive: no binding seen”.

Turning to B20, the “apparent Kd” value is “inactive: no binding seen”.

On to B21, for which the “apparent Kd” value is “inactive: no binding seen”.

On to B22, for which the “apparent Kd” value is “inactive: no binding seen”.

As for B23, the “apparent Kd” value is “inactive: no binding seen”.

As to B24, the “apparent Kd” value was “inactive: no binding seen”.
